Test results as given in the supplement of paper PMC8728848.
This is one part of the list.

How the values were obtained:
Assay in all cases: glycan array binding signal (z-score within array); higher = stronger binding
Settings in all cases: glycan notation: IUPAC condensed, linker removed
[1] = target: Gal(b1-3)GlcNAc(b1-2)Man(a1-3)[Gal(b1-3)GlcNAc(b1-2)Man(a1-6)]Man(b1-4)GlcNAc(b1-4)[Fuc(a1-6)]GlcNAc
Summary of the method: (§1)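 Negative Z-scores can be read as non-binding. The Z-score is calculated within each array and then averaged across arrays of one protein sequence at different concentrations or buffers and across linkers. Arrays, 3228 in all, were curated from the Consortium for Functional Glycomics database and kept only where the protein sequence was available.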

[2] = target: Gal(b1-3)GlcNAc(b1-2)Man(a1-3)[GlcNAc(b1-4)][Gal(b1-3)GlcNAc(b1-2)Man(a1-6)]Man(b1-4)GlcNAc(b1-4)GlcNAc
Summary of the method: as §1

[3] = target: Gal(b1-3)GlcNAc(b1-2)[Gal(b1-3)GlcNAc(b1-6)]Man(a1-6)[Gal(b1-3)GlcNAc(b1-2)Man(a1-3)]Man(b1-4)GlcNAc(b1-4)GlcNAc
Summary of the method: as §1

[4] = target: Gal(b1-3)GlcNAc(b1-3)Gal(b1-3)GlcNAc
Summary of the method: as §1

[5] = target: Gal(b1-3)GlcNAc(b1-3)Gal(b1-4)Glc
Summary of the method: as §1

[6] = target: Gal(b1-3)GlcNAc(b1-3)Gal(b1-4)GlcNAc
Summary of the method: as §1

[7] = target: Gal(b1-3)GlcNAc(b1-3)Gal(b1-4)GlcNAc(b1-2)Man(a1-3)[Gal(b1-3)GlcNAc(b1-3)Gal(b1-4)GlcNAc(b1-2)Man(a1-6)]Man(b1-4)GlcNAc(b1-4)GlcNAc
Summary of the method: as §1

[8] = target: Gal(b1-3)GlcNAc(b1-3)Gal(b1-4)GlcNAc(b1-2)[Gal(b1-3)GlcNAc(b1-3)Gal(b1-4)GlcNAc(b1-6)]Man(a1-6)[Gal(b1-3)GlcNAc(b1-3)Gal(b1-4)GlcNAc(b1-2)Man(a1-3)]Man(b1-4)GlcNAc(b1-4)[Fuc(a1-6)]GlcNAc
Summary of the method: as §1

[9] = target: Gal(b1-3)GlcNAc(b1-3)Gal(b1-4)GlcNAc(b1-3)Gal(b1-4)GlcNAc(b1-2)[Gal(b1-3)GlcNAc(b1-3)Gal(b1-4)GlcNAc(b1-3)Gal(b1-4)GlcNAc(b1-6)]Man(a1-6)[Gal(b1-3)GlcNAc(b1-3)Gal(b1-4)GlcNAc(b1-3)Gal(b1-4)GlcNAc(b1-2)Man(a1-3)]Man(b1-4)GlcNAc(b1-4)[Fuc(a1-6)]GlcNAc
Summary of the method: as §1

[10] = target: Gal(b1-3)GlcNAc(b1-3)Gal(b1-4)GlcNAc(b1-6)[Gal(b1-3)GlcNAc(b1-3)]Gal(b1-4)Glc
Summary of the method: as §1

[11] = target: Gal(b1-3)GlcNAc(b1-3)Gal(b1-4)[Fuc(a1-3)]GlcNAc
Summary of the method: as §1

[12] = target: Gal(b1-3)GlcNAc(b1-3)Gal(b1-4)[Fuc(a1-3)]GlcNAc(b1-6)[Gal(b1-3)GlcNAc(b1-3)]Gal(b1-4)Glc
Summary of the method: as §1

[13] = target: Gal(b1-3)GlcNAc(b1-3)GalNAc
Summary of the method: as §1

[14] = target: Gal(b1-3)GlcNAc(b1-6)Gal(b1-4)GlcNAc
Summary of the method: as §1

[15] = target: Gal(b1-3)GlcNAc(b1-6)GalNAc
Summary of the method: as §1

[16] = target: Gal(b1-3)GlcNAc(b1-6)[Gal(b1-3)]GalNAc
Summary of the method: as §1

Gal(b1-3)GlcNAc6S = target: Gal(b1-3)GlcNAc6S
Summary of the method: as §1

[17] = target: Gal(b1-3)[Fuc(a1-4)]GlcNAc
Summary of the method: as §1

[18] = target: Gal(b1-3)[Fuc(a1-4)]GlcNAc(b1-2)Man
Summary of the method: as §1

[19] = target: Gal(b1-3)[Fuc(a1-4)]GlcNAc(b1-2)Man(a1-3)[Gal(b1-3)[Fuc(a1-4)]GlcNAc(b1-2)Man(a1-6)]Man(b1-4)GlcNAc(b1-4)[Fuc(a1-6)]GlcNAc
Summary of the method: as §1

[20] = target: Gal(b1-3)[Fuc(a1-4)]GlcNAc(b1-3)Gal(b1-3)[Fuc(a1-4)]GlcNAc
Summary of the method: as §1

[21] = target: Gal(b1-3)[Fuc(a1-4)]GlcNAc(b1-3)Gal(b1-4)[Fuc(a1-3)]GlcNAc
Summary of the method: as §1

[22] = target: Gal(b1-3)[Fuc(a1-4)]GlcNAc(b1-6)GalNAc
Summary of the method: as §1

[23] = target: Gal(b1-3)[GlcNAc(b1-6)]GalNAc
Summary of the method: as §1

[24] = target: Gal(b1-3)[Neu5Ac(a2-6)]GalNAc
Summary of the method: as §1

[25] = target: Gal(b1-3)[Neu5Ac(a2-6)]GlcNAc(b1-4)Gal(b1-4)Glc
Summary of the method: as §1

[26] = target: Gal(b1-3)[Neu5Ac(b2-6)]GalNAc
Summary of the method: as §1

Gal(b1-4)Gal = target: Gal(b1-4)Gal
Summary of the method: as §1

[27] = target: Gal(b1-4)GalNAc(a1-3)[Fuc(a1-2)]Gal(b1-4)GlcNAc
Summary of the method: as §1

[28] = target: Gal(b1-4)GalNAc(b1-3)[Fuc(a1-2)]Gal(b1-4)GlcNAc
Summary of the method: as §1

Gal(b1-4)Glc = target: Gal(b1-4)Glc
Summary of the method: as §1

Gal(b1-4)Glc6S = target: Gal(b1-4)Glc6S
Summary of the method: as §1

Gal(b1-4)GlcNAc = target: Gal(b1-4)GlcNAc
Summary of the method: as §1

[29] = target: Gal(b1-4)GlcNAc(a1-6)Gal(b1-4)GlcNAc
Summary of the method: as §1

Gal(b1-4)GlcNAc(b1-2)Man = target: Gal(b1-4)GlcNAc(b1-2)Man
Summary of the method: as §1

[30] = target: Gal(b1-4)GlcNAc(b1-2)Man(a1-3)Man(b1-4)GlcNAc(b1-4)GlcNAc
Summary of the method: as §1

[31] = target: Gal(b1-4)GlcNAc(b1-2)Man(a1-3)[Gal(b1-4)GlcNAc(b1-2)Man(a1-6)]Man(b1-4)GlcNAc(b1-4)GlcNAc
Summary of the method: as §1

B1: SAOUHSC 02783 (Staphylococcus aureus), Q5HD69 (protein)
chain: MIHSKKLTLGICLVLLIILIVGYVIMTKTNGRNAQIKDTFNQTLKLYPTKNLDDFYDKEGFRDQEFKKGDKGTWIVNSEMVIEPKGKDMETRGMVLYINRNTRTTKGYYFISEMTDDSNGRPKDDEKRYPVKMEHNKIIPTKPLPNDKLKKEIENFKFFVQYGNFKDINDYKDGDISYNPNVPSYSAKYQLNNDDYNVQQLRKRYDIPTKQAPKLLLKGDGDLKGSSVGSRSLEFTFVENKEENIYFTDSVQYTPSEDTRYESN
- glycan array binding signal (z-score) [1]: 0.331
- glycan array binding signal (z-score) [2]: 3.09
- glycan array binding signal (z-score) [3]: -0.653
- glycan array binding signal (z-score) [4]: -1.32
- glycan array binding signal (z-score) [5]: -0.527
- glycan array binding signal (z-score) [6]: 0.894
- glycan array binding signal (z-score) [7]: -1.28
- glycan array binding signal (z-score) [8]: 0.178
- glycan array binding signal (z-score) [9]: -0.241
- glycan array binding signal (z-score) [10]: 0.465
- glycan array binding signal (z-score) [11]: 0.724
- glycan array binding signal (z-score) [12]: 0.299
- glycan array binding signal (z-score) [13]: -0.237
- glycan array binding signal (z-score) [14]: -0.152
- glycan array binding signal (z-score) [15]: -0.347
- glycan array binding signal (z-score) [16]: -0.318
- glycan array binding signal (z-score) (Gal(b1-3)GlcNAc6S): 0.915
- glycan array binding signal (z-score) [17]: 0.169
- glycan array binding signal (z-score) [18]: 2.5
- glycan array binding signal (z-score) [19]: 1.82
- glycan array binding signal (z-score) [20]: -0.547
- glycan array binding signal (z-score) [21]: 0.001
- glycan array binding signal (z-score) [22]: 0.425
- glycan array binding signal (z-score) [23]: -0.308
- glycan array binding signal (z-score) [24]: 0
- glycan array binding signal (z-score) [25]: -1.05
- glycan array binding signal (z-score) [26]: -0.3
- glycan array binding signal (z-score) (Gal(b1-4)Gal): 0.435
- glycan array binding signal (z-score) [27]: -0.306
- glycan array binding signal (z-score) [28]: -1.95
- glycan array binding signal (z-score) (Gal(b1-4)Glc): 0.097
- glycan array binding signal (z-score) (Gal(b1-4)Glc6S): 0.097
- glycan array binding signal (z-score) (Gal(b1-4)GlcNAc): 0.088
- glycan array binding signal (z-score) [29]: -0.738
- glycan array binding signal (z-score) (Gal(b1-4)GlcNAc(b1-2)Man): 1.27
- glycan array binding signal (z-score) [30]: 0.093
- glycan array binding signal (z-score) [31]: -1.22
